The whole screen tested about 400,000 compounds, of which about 13,000 (3.2%) were called active. Inconclusive means that the source gave no clear call. Such entries were picked first, then a sample of the others. Calls follow the shape of the dose curve; as a rule, active = well fitted cell-killing curve with a large enough effect; inconclusive = small, poorly fitted or top-dose-only effect, or effect the other way; inactive = flat fitted curve, though single readings scatter. Where the call is inconclusive, the potency comes from a doubtful curve fit.
Experiment: qHTS assay for MDR1-selective chemotherapeutics: Primary screen using the drug-selected MDR subline cells KB-V1; also: nearly all actives have a fitted effect of over 60% in size
Details: KB-V1 MDR cells viability, CellTiter-Glo, 72 h; activity change, negative = cytotoxicity: at 46.1 µM (top of the series)
Summary of the method: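 Cytotoxicity via CellTiter-Glo luminescence after 72 h compound exposure at 37 degrees C. Cells: drug-selected KB-V1 line, DMEM phenol-red free plus 10% FBS. Compounds tested at multiple concentrations; normalized data fitted to concentration-effect curves.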
% is scaled to controls: 0 for no effect and ±100 for the full control effect; potency is read from the fitted curve at half-maximal effect.

Row | Structure (SMILES) | Potency | activity change, negative = cytotoxicity
1 | CCCC1CC(CSc2ncn[nH]2)OC1=O (stereo not given) | inconclusive: 18.4 µM [rising, single point] | –
2 | CCOCCCNC(=O)c1c[nH]c2ccc(S(=O)(=O)Nc3cccc(Cl)c3C)cc2c1=O | inconclusive: 16.4 µM [rising, single point] | –
3 | COc1ccc(NC(=O)CCc2ccccc2)cc1NC(=O)c1ccco1 | active: 7.31 µM | –
4 | COc1cc(C(=O)NCCC2=CCCCC2)ccc1OC1CCN(C(C)=O)CC1 | inconclusive: 18.4 µM [cytotoxic, partial curve] | –
5 | Cc1ccc(C(=O)CSc2ncnc3sc4c(c23)CCC(C)C4)cc1 (stereo not given) | inconclusive: 14.6 µM [rising, partial curve] | –
6 | O=C(Nc1ccc(S(=O)(=O)N2CCCC2)cc1)c1ccc(OCC2CCCO2)cc1 (stereo not given) | inconclusive: 7.31 µM [cytotoxic, partial curve] | –
7 | COc1ccc(CN2C(=O)C(CC(=O)NCCCN(C)C)CC(C(=O)N(C(C)C)C(C)C)=C2C)cc1 (stereo not given) | – | inactive: 22.8%
8 | COc1ccc(S(=O)(=O)c2cc3cc(C(C)(C)C)cc(O)c3oc2=O)cc1 | – | inactive: 3.89%
9 | CN1CCC(N(C)C(=O)c2ccc(Cl)c(S(=O)(=O)Nc3cc(Cl)ccc3Cl)c2)CC1 | – | inconclusive: 105%
10 | Cc1ccc(-c2cc3onc(-c4ccccc4)c3c(=O)n2C)cc1 | inconclusive: 29.1 µM [cytotoxic, single point] | –
11 | CN(CC(=O)Nc1ccccc1C(F)(F)F)C(=O)c1ccccc1Sc1ccccc1C#N | inconclusive: 16.4 µM [cytotoxic, single point] | –
12 | COC(=O)c1ccc(S(=O)(=O)NNC(=O)COc2ccc(C)cc2)cc1 | inconclusive: 4.11 µM [rising, partial curve, poor fit] | –
13 | Cn1c2c(c(=O)n(C)c1=O)C(c1ccccc1C(F)(F)F)CC(=O)N2 (stereo not given) | – | inactive: -4%
14 | O=C1c2ccccc2-c2onc3ccc(Oc4ccccc4)c1c23 | active: 23.1 µM | –
15 | NC(=O)C1CCN(c2ccc(S(=O)(=O)N3CCC(Cc4ccccc4)CC3)cn2)CC1 | inconclusive: 10.3 µM [cytotoxic, partial curve] | –
16 | COC(=O)c1ccc(NS(=O)(=O)c2ccc3c(c2)n(C)c(=O)c(=O)n3C)cc1 | inconclusive: 20.6 µM [rising, single point] | –
17 | O=C(O)CC1c2ccccc2CCN1S(=O)(=O)c1cccs1 (stereo not given) | – | inactive: 9.03%
18 | CC(=O)Nc1ccc(S(=O)(=O)N[C@@H](C)C(=O)OCC(=O)Nc2ccc3c(c2)OCCO3)cc1 | – | inactive: 0%
19 | CC1(C)CC(=O)C/C(=N/NC(=O)COc2ccc3ccccc3c2Br)C1 | – | inactive: 5.54%
20 | CC(C)N=C(NC#N)SCc1ccc(F)cc1 | inconclusive: 29.1 µM [cytotoxic, single point] | –
21 | CC(C)(CC(=O)NCc1ccc(Cl)cc1Cl)CC1=NS(=O)(=O)c2ccccc2N1 | inconclusive: 29.1 µM [cytotoxic, single point] | –
22 | Cc1cc(C)c(N(C(=O)Cn2nnc3ccccc32)C(C(=O)NC(C)(C)C)c2ccsc2)c(C)c1 (stereo not given) | inconclusive: 10.3 µM [cytotoxic, partial curve, poor fit] | –
23 | O=C(C[C@@H]1C=C[C@@H](NC(=O)c2cccnc2)[C@@H](CO)O1)NCc1ccncn1 | – | inactive: 13.7%

Row | Structure (SMILES) | Potency | activity change, negative = cytotoxicity
24 | COc1ccccc1/C=C/CN1CCCC(CO)(CCc2ccccc2)C1 (stereo not given) | – | inactive: -6.82%
25 | Cc1ccc(C(=O)N2CCN(c3cccc(Cl)c3)CC2)cc1-n1c(C)nc2cccnc21 | – | inactive: -21%
26 | Cc1ccc(S(=O)(=O)N(C)c2ccc(OC(C)C(=O)N(C)c3ccccc3)cc2)cc1 (stereo not given) | inconclusive: 3.66 µM [cytotoxic, partial curve] | –
27 | O=C1c2ccccc2C(=O)N1c1ccccc1 | – | inconclusive: 36.3%
28 | CC1CCN(C(=O)COC(=O)c2ccccc2NCCO)CC1 | – | inactive: -21.4%
29 | COc1ccc(CCNC(=O)c2c(N)no[n+]2[O-])cc1OC | inconclusive: 0.092 µM [cytotoxic, full curve] | –
30 | Cc1ccc(S(=O)(=O)N2CCCC(C(=O)NCCc3ccc(S(N)(=O)=O)cc3)C2)cc1 (stereo not given) | – | inconclusive: -44.3%
31 | CCNC(=O)CC1C(=O)N(c2ccc(F)cc2)C(=O)N1Cc1ccc(OC)c(OC)c1 (stereo not given) | – | inactive: -14.4%
32 | Cc1ccnc2ncccc12 | – | inactive: 8.25%
33 | COc1ccc(-c2c(C#N)c(N)nc3c2CCC3)cc1 | inconclusive: 32.6 µM [cytotoxic, single point] | –
34 | S=C(NCCc1ccccc1)N/N=C/c1ccccc1Cl | inconclusive: 29.1 µM [cytotoxic, single point] | –
35 | CC1(C)Cc2ccccc2-c2c1c(=O)n(Cc1ccccc1)c1nnnn21 | inconclusive: 20.6 µM [cytotoxic, partial curve, poor fit] | –
36 | CSc1ccccc1NC(=O)Nc1cccc(F)c1 | inconclusive: 18.4 µM [cytotoxic, single point] | –
37 | COc1cc(NC(=O)COc2cccc(OC)c2)cc(OC)c1 | – | inactive: 0.348%
38 | COc1cc(Cl)c(C)cc1NC(=O)C1CCCN(c2ncnc3onc(-c4ccc(F)cc4)c23)C1 (stereo not given) | inconclusive: 29.1 µM [cytotoxic, single point] | –
39 | Cc1ccccc1Nc1nnc(SCC(=O)NC2CCCc3ccccc32)s1 (stereo not given) | inconclusive: 16.4 µM [cytotoxic, partial curve, poor fit] | –
40 | CCCCNC(=O)c1nc(C2CCN(S(=O)(=O)c3ccc(S(C)(=O)=O)cc3)CC2)oc1-c1ccccc1 | inconclusive: 2.59 µM [cytotoxic, full curve] | –
41 | O=C(O)c1ccccc1NS(=O)(=O)c1ccc(NNC(=S)Nc2ccc(OC(F)F)cc2)c([N+](=O)[O-])c1 | – | inactive: -30%
42 | N=C1SCC(=O)N1c1ncc(Cc2cccc(Cl)c2)s1 | inconclusive: 32.6 µM [cytotoxic, single point] | –
43 | O=C1c2ccccc2/C(=C\C#Cc2ccccn2)N1c1ccccc1 | – | inactive: -0.663%
44 | CCOc1ccccc1N(CC(=O)NC(C)(C)C)C(=O)c1ccc(CN2CCOCC2)o1 | active: 14.6 µM | –
45 | CCOC(=O)C1C(C)C(C(C)(C)C)N(S(=O)(=O)c2ccc(C)cc2)C1c1ccccc1 (stereo not given) | inconclusive: 11.6 µM [cytotoxic, partial curve] | –

From PubChem BioAssay AID1347076 (National Center for Advancing Translational Sciences (NCATS), 2019)
